This note sets out measurements from patent US20240124563A1.

By UniProt entry, the sequences of proteins in these tests, tags left out. Where a name states a change or a piece, a line headed by the entry shows the natural chain unless it says otherwise.
UniProt Q13421: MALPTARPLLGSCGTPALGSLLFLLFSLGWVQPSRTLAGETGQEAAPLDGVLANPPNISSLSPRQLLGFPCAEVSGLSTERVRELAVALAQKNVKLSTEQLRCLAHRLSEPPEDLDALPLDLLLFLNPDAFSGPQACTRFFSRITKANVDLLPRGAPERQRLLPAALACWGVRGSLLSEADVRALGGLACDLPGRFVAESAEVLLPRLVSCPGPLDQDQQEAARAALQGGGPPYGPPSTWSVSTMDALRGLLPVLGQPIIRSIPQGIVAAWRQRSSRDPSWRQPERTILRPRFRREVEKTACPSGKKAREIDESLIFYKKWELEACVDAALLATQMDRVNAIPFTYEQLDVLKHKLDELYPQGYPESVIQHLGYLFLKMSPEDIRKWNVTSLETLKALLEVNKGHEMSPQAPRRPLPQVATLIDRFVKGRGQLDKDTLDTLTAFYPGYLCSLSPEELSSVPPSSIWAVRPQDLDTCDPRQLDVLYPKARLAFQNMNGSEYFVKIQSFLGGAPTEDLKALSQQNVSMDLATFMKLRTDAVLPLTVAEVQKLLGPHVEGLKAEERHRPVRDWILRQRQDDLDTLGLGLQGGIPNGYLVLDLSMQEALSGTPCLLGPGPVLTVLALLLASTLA

Results are given in words; binding and its absence hold for the method and conditions named. Binding can be weak; no strength is given.

In this test the target is human MSLN protein endogenously expressed on tumor cells (Hela, OVCAR3) (human) (UniProt Q13421). Nature of the test: FACS, OVCAR3 cells. In general terms: Flow cytometry measures light scatter and fluorescence of single cells or particles in a stream.

B1: Tab107 (YP3, hIgG1) (antibody, V domains shown)
VH: QEQLVESGGGLVQPGASLTLTCTASGIDFSRYYMCWVRQAPGKGLEGIACIYIGGSGSTYYASWAKGRFTISKASSTTVTLQMTSLTAADTATYFCARGTNLNYIFRLWGPGTLVTVSS
VL: DVVMTQTPSPVSAAVGGTVTIKCQASQSINNGLAWYQQKPGQPPRLLIYSASNLESGVPSRFKGSGSGTEFTLTISDLECDDAATYYCQCIWDGNSYVNAFGGGTEVVVRT
Turning to B1, the binding result is “binds”.
